In paper PMC7105138, “Modeling cancer genomic data in yeast reveals selection against ATM function during tumorigenesis” (PLoS Genetics, 2020) one finds binding data, which are given here for nine molecules.

Residue numbers refer to the chain shown, from its start. Names may count otherwise. These are yes or no findings as the source states them, for the method shown. For part of these data: Binding seen in cells or lysates may run through a third protein. Some entries that bind do so weakly or less than the wild type. For part of these data: Tags and fused reporters may be left off the sequences shown.

T1: Mre11 (S. cerevisiae (endogenous in W303)) (UniProt P32829)
T1 sequence: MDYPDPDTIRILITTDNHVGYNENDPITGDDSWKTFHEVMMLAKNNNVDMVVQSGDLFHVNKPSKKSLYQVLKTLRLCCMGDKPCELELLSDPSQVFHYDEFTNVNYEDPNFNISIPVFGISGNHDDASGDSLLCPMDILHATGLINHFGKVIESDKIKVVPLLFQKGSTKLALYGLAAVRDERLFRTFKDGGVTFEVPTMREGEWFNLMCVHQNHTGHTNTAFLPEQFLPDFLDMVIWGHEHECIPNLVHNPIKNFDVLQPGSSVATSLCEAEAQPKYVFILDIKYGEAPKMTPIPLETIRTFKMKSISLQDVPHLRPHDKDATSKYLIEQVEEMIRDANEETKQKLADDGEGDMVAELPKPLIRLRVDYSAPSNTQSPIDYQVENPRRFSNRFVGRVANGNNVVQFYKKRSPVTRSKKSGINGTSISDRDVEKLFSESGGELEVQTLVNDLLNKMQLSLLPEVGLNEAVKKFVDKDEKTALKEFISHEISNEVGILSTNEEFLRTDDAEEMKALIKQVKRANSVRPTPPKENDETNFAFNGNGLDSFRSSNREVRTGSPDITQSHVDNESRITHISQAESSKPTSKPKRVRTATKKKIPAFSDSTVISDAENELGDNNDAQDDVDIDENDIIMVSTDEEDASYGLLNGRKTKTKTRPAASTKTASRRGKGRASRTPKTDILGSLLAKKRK

T2: Xrs2-FLAG (S. cerevisiae) (UniProt P33301)
T2 sequence: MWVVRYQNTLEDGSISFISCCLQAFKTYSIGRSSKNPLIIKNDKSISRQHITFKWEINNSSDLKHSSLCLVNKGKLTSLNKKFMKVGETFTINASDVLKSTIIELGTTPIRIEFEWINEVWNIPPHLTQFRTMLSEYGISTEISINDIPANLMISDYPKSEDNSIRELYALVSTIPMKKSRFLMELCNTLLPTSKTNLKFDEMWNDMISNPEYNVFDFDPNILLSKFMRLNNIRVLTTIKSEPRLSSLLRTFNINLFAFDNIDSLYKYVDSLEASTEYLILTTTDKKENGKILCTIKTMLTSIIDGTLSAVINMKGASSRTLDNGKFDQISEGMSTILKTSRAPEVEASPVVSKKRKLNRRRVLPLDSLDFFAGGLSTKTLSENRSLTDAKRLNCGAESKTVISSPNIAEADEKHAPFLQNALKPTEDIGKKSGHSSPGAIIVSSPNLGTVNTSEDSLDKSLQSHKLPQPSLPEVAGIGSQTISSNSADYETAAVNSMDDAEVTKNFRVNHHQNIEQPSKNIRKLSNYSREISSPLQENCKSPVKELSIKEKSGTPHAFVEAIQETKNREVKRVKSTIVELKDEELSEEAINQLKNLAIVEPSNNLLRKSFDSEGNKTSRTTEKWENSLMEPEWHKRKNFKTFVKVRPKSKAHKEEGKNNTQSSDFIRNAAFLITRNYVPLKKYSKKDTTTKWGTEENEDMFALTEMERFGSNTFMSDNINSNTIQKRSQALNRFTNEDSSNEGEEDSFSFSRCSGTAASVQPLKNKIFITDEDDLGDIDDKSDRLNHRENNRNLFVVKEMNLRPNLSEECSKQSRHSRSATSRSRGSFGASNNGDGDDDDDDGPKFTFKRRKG

B1: Rad50-L1240F (protein, UniProt P12753 1-1312)
chain: MSAIYKLSIQGIRSFDSNDRETIEFGKPLTLIVGMNGSGKTTIIECLKYATTGDLPPNSKGGVFIHDPKITGEKDIRAQVKLAFTSANGLNMIVTRNIQLLMKKTTTTFKTLEGQLVAINNSGDRSTLSTRSLELDAQVPLYLGVPKAILEYVIFCHQEDSLWPLSEPSNLKKKFDEIFQAMKFTKALDNLKSIKKDMSVDIKLLKQSVEHLKLDKDRSKAMKLNIHQLQTKIDQYNEEVSEIESQLNEITEKSDKLFKSNQDFQKILSKVENLKNTKLSISDQVKRLSNSIDILDLSKPDLQNLLANFSKVLMDKNNQLRDLETDISSLKDRQSSLQSLSNSLIRRQGELEAGKETYEKNRNHLSSLKEAFQHKFQGLSNIENSDMAQVNHEMSQFKAFISQDLTDTIDQFAKDIQLKETNLSDLIKSITVDSQNLEYNKKDRSKLIHDSEELAEKLKSFKSLSTQDSLNHELENLKTYKEKLQSWESENIIPKLNQKIEEKNNEMIILENQIEKFQDRIMKTNQQADLYAKLGLIKKSINTKLDELQKITEKLQNDSRIRQVFPLTQEFQRADLEMDFQKLFINMQKNIAINNKKMHELDRRYTNALYNLNTIEKDLQDNQKSKEKVIQLLSENLPEDCTIDEYNDVLEETELSYKTALENLKMHQTTLEFNRKALEIAERDSCCYLCSRKFENESFKSKLLQELKTKTDANFEKTLKDTVQNEKEYLHSLRLLEKHIITLNSINEKIDNSQKCLEKAKEETKTSKSKLDELEVDSTKLKDEKELAESEIRPLIEKFTYLEKELKDLENSSKTISEELSIYNTSEDGIQTVDELRDQQRKMNDSLRELRKTISDLQMEKDEKVRENSRMINLIKEKELTVSEIESSLTQKQNIDDSIRSKRENINDIDSRVKELEARIISLKNKKDEAQSVLDKVKNERDIQVRNKQKTVADINRLIDRFQTIYNEVVDFEAKGFDELQTTIKELELNKAQMLELKEQLDLKSNEVNEEKRKLADSNNEEKNLKQNLELIELKSQLQHIESEISRLDVQNAEAERDKYQEESLRLRTRFEKLSSENAGKLGEMKQLQNQIDSLTHQLRTDYKDIEKNYHKEWVELQTRSFVTDDIDVYSKALDSAIMKYHGLKMQDINRIIDELWKRTYSGTDIDTIKIRSDEVSSTVKGKSYNYRVVMYKQDVELDMRGRCSAGQKVLASIIIRLALSETFGANCGVIALDEPTTNFDEENIESLAKSLHNIINMRRHQKNFQLIVITHDEKFLGHMNAAAFTDHFFKVKRDDRQKSQIEWVDINRVTY
B2: Mre11-his6 (protein, UniProt P32829 1-692)
chain: T1 sequence
B3: Rad50-K40A (in MRX-K40A) (protein, UniProt P12753 1-1312)
chain: B1 chain with K40A, F1240L
B4: Rad50 WT (in MRX-WT from insect cells) (protein, UniProt P12753 1-1312)
chain: B1 chain with F1240L
B5: Rad50-D67N (in MRX-D67N from insect cells) (protein, UniProt P12753 1-1312)
chain: B1 chain with D67N, F1240L
B6: Rad50-L1240F-S343P (in MRX-L1240F-S343P from insect cells) (protein, UniProt P12753 1-1312)
chain: B1 chain with S343P
B7: Rad50-D67Y (in MRX-D67Y from insect cells) (protein, UniProt P12753 1-1312)
chain: B1 chain with D67Y, F1240L
B8: Rad50-L1240F-I23V (in the Mre11 complex from insect cells) (protein, UniProt P12753 1-1312)
chain: B1 chain with I23V
B9: Rad50-L1240F (in MRX-L1240F from insect cells) (protein, UniProt P12753 1-1312)
chain: B1 chain

For one assay, the target named is T1, Mre11 (S. cerevisiae (endogenous in W303)). Briefly: co-IP; immunoprecipitation from yeast cells with Rad50 or Mre11 antisera, western blot with Rad50 or Mre11 antisera; preimmune antibodies as negative controls.
Consider B1, for which the binding entry is reported as “binds”.

For a further assay, the target named is T2, Xrs2-FLAG (S. cerevisiae). Briefly: co-purification on anti-FLAG agarose; Sf9 cells co-infected with baculoviruses for Mre11-his6, Xrs2-FLAG and Rad50 WT or mutant; lysate at 0.5 M NaCl on anti-FLAG M2 agarose overnight at 4°C, washed 10x with 500 mM NaCl, eluted with 3xFLAG peptide in 250 mM NaCl; Coomassie-stained SDS-PAGE.
In the case of B2, the binding entry was “binds”.
Consider B3, for which the binding result is “binds”.
The same measure, in the same setting: the same measure for B4: “binds”; for B5: “binds”; for B6: “binds”.
On the same count and under the same terms, the same measure for B7: “binds”; for B8: “binds”.
Same read-out and setting: the same measure for B9: “binds”.
